Our source for the binding values is paper doi:10.1101/2020.01.21.913905.

The chains behind the UniProt entries cited, without tags or fusion partners. Where a name states a change or a piece, a line headed by the entry shows the natural chain unless it says otherwise.
UniProt P36397: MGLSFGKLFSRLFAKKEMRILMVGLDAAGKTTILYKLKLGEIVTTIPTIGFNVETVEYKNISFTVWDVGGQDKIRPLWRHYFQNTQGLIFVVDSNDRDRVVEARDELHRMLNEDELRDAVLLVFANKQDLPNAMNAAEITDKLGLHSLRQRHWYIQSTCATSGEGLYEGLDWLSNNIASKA

The target of assay [1] is ARF1-Q71L-YFP (Arabidopsis thaliana) (UniProt P36397). Nature of the assay: FRET or BRET.
For assay [2], the target named is ARF1-Y35A,Q71L-GFP (Arabidopsis thaliana) (UniProt P36397). Nature of the assay: FRET or BRET.
The target in assay [3] is ARF1-Q71L-YFP (Arabidopsis thaliana) (UniProt P36397). Nature of the assay: co-IP.
Assay [4] has as its target ARF1-T31N-YFP (Arabidopsis thaliana) (UniProt P36397). Nature of the assay: co-IP.

These are yes or no findings as the source states them, for the method shown. Binding seen in cells or lysates may run through a third protein. Some binding calls cover weakened binding; strength is not graded here.

“ARF1-Q71L-YFP (from UniProt P36397 1-181)”: the binding entry in assay [1] is on record as “binds”.
Take “ARF1-Y35A,Q71L-GFP (from UniProt P36397 1-181)”: the binding result in assay [2] is “no binding”.
Consider “endogenous ARF1 (from UniProt P36397 1-181)”, for which the binding entry in assay [3] and in assay [4] was “binds” in each case.
